# Data published in patent publication US8895696 (dated 2014).
# Assay: general procedure: Fmoc solid-phase peptide synthesis
# Details: for step yield: coupling step; for isolated yield: whole synthesis
Substance,step yield [%],isolated yield [%],other results
Fmoc-Pro-Ala-His-Gly-Val-(Ac3-Tn-α-Thr)-Ser-Ala-OH,67,,
N-Fmoc-His-Gly-Val-(Ac3-Tn-α-Thr)-Ser-Ala-OH,71,,
dNBS-Gly-Val-(Ac3-Tn-α-Thr)-Ser-Ala-OH,,,isolated yield (run 1): 49%; isolated yield (run 2): 48%
dNBS-Gly-Val-Thr-Ser-Ala-OH,,62,
dNBS-His-Gly-Val-(Ac3-Tn-α-Thr)-Ser-Ala-OH,,56,
dNBS-Val-Thr-Ser-Ala-OH,,77,
